No constants are given. Whether binding was seen depends on the method and setting. In cells and extracts the contact can be indirect. Some results given as binding are weak or reduced against the parent protein; the word gives no strength.

Chains of the proteins cited; added tags and fusions are not shown. Lines headed by an entry give the natural chain unless they say otherwise; changes in a name come on top.
UniProt B6SBL8: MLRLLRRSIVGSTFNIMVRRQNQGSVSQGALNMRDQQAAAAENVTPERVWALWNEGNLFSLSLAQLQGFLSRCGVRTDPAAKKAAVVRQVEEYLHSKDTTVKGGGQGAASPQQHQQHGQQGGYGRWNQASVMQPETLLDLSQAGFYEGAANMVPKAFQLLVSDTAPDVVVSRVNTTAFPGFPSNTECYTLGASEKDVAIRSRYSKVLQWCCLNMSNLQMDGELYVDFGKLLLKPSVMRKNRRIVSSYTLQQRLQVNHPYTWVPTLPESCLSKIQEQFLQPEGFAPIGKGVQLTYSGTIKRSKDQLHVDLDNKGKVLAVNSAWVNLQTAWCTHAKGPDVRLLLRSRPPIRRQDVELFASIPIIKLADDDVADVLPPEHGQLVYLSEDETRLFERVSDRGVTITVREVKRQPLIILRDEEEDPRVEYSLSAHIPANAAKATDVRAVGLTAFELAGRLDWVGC
UniProt B6SBM0: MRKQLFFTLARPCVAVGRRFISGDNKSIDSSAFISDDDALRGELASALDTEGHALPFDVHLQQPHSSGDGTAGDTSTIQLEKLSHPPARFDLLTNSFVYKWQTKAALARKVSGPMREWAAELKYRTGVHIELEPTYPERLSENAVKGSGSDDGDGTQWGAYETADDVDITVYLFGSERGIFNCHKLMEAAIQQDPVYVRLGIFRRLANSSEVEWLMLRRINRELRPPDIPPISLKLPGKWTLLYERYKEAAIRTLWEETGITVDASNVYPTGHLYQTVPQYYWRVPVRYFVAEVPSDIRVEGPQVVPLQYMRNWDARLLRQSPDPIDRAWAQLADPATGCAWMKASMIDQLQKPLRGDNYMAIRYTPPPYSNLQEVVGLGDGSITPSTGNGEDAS

The target of the test is GRBC1/2 (RNA editing substrate-binding complex, RESC) (Trypanosoma brucei (endogenous in procyclic T. brucei)) (UniProt B6SBL8). As to the kind of experiment: co-sedimentation + native gel or EMSA; detergent extract of crude mitochondrial fraction, 10-30% glycerol gradient 5 h at 178,000 x g, each fraction on 3-12% Bis-Tris native gel, immunoblotting.

Consider “MERS1 NUDIX hydrolase (PPsome subunit) (from UniProt B6SBM0 1-395) (enzyme)”, for which the binding result was “binds”.

Source of the values: article PMC6329795.
